Screen size: about 6,900 compounds; fewer than 10 were called active. Calls come from the whole dose curve; as a rule, active = well fitted curve in the direction sought with a large enough effect; inconclusive = small, poorly fitted or top-dose-only effect, or another doubt; inactive = no such curve, though single readings can be large or run the other way. The list shows a part of the results.
What follows are compounds tested against Metallo-beta-lactamase type 2 (Klebsiella pneumoniae) (UniProt C7C422) (assay: qHTS to identify inhibitors of the New Delhi Metallo-beta-lactamase (NDM): primary screen against the NCATS Gemini Collection). Conditions: NDM-1 enzyme, meropenem hydrolysis, absorbance 300 nm; at 38.4 µM (top of the series) unless noted.
How it was run: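 Meropenem hydrolysis (50 uM final) by 2 nM NDM-1 read as 300 nm absorbance after 30 min, following >30 min compound–enzyme preincubation in HEPES pH 7.0 with 1 uM ZnSO4 and 0.01% Tween20.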
Note: % of control where 0% means no effect.

Protein sequences, listed by entry. Tags and fused reporters are not part of them. Lines headed by an entry give the natural chain unless they say otherwise; changes in a name come on top.
UniProt C7C422: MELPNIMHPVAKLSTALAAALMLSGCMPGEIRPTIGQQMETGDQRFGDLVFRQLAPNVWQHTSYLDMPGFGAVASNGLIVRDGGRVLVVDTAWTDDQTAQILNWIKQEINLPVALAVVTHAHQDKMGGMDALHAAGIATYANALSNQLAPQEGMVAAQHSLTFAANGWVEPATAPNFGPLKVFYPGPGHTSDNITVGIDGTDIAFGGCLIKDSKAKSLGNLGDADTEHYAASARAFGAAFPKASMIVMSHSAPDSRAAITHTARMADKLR

Activity % (negative = inhibition), inactive:
COCCn1ccc2ccc(C(=O)Nc3ccc4c(c3)C(=O)N3CCC[C@H]3C(=O)N4)cc21 29.2%
CN(C)C1CCCN(C(=O)c2csc3c2CCCC3)CC1 (stereo unspecified) -0.9%
COc1cccc(C(=O)N[C@H]2[C@H](O)[C@H](O)C[C@@H]2c2cccnc2)c1 0.332% [at 57.5 µM]
CN(C)CCNC(=O)c1ccc(-c2nnc3ccc(NC(=O)C4CCC4)cn23)cc1 4.07%
CN(C(=O)Cc1ccsc1)C1CCc2nn(C)c(=O)n2CC1 (stereo unspecified) 1.4%
CS(=O)(=O)N1Cc2ccccc2CC2(CCCN2Cc2cccnc2)C1 (stereo unspecified) 16.8%
Cc1cc(-c2cnc(Nc3ccc(F)cc3)c3c2CCO3)ccn1 7.71% [at 57.5 µM]
COc1ccccc1CC(=O)NCCn1cccc1-c1nc(-c2ccccc2)no1 5.16%
COCc1nnc2n1CCC(NC(=O)C1CC=CC1)CC2 (stereo unspecified) -1.58%
Cc1cnc(-c2ccncc2)n1CC1CCN(C(=O)CCCc2ccccc2)C1 (stereo unspecified) 3.07%
COc1ccc(Cn2cc(C(C(=O)O)N(C)Cc3cccnc3)cn2)cc1 (stereo unspecified) -0.42%
Cc1cc(Cl)c2oc(C(=O)N(Cc3c(C)nn(C)c3C)C3CC3)c(C)c2c1 11.2%
O=C(NCc1ccc(Cl)cc1)c1ccc2ccnn2c1 8.25% [at 57.5 µM]
Nc1ncccc1CN1C[C@H]2CN(C(=O)C3CCC3)C[C@@]2(C(=O)O)C1 9.33%
COC(=O)[C@H](Cc1ccc(OC)cc1)NC(=O)[C@H]1CN(S(=O)(=O)c2ccccc2)CCN1S(=O)(=O)c1ccccc1 -0.794%
NC(=O)c1cccc(NC(=O)c2cccc(CN3CCNC(=O)C3)c2)c1 27.1%
FC(F)(F)c1ccc(CN2CC(N3CCc4ccccc43)C2)cc1 28.1%
OC[C@@H]1O[C@H](CNCc2ccc(F)cc2)[C@H](N2CCOCC2)[C@@H]1O 92.1% [at 57.5 µM]
O=C(C1CCCN1[S+](=O)([O-])c1cccs1)N1CCC(N2CCOCC2=O)CC1 (stereo unspecified) 0.988%
COc1cccc(-c2nccc3c(=O)cc(N(C)C)oc23)c1 45.9% [at 77.1 µM]
C=CCCC(CN1CCCOCC1)Oc1cc(C#N)ccn1 (stereo unspecified) 3.12%
CC(C)(C(=O)O)C1CCOCC1 0%
CCn1nccc1C(=O)N1CCC([C@H]2[C@@H](OC)CN2C(C)C)CC1 0.0882%
COC1CCOC2(CCN(C(=O)c3cc(-c4ccccc4)n[nH]3)CC2)C1 (stereo unspecified) -1.12%
O=C(Nc1ccc2c(N3CCCC3)ncnc2c1)c1cc(F)ccc1Cl 13%
COc1ccc(NC(=O)N2CCCC(Cc3noc(-c4ccncc4)n3)C2)cc1 (stereo unspecified) 18%
N#Cc1ccccc1-c1cc2c(ccn2Cc2ccncc2)c(N2CCOCC2)n1 0.932% [at 57.5 µM]
COCCOCC1(CNC(=O)C2CCOCC2)C[C@@H](O)[C@@H](O)C1 (stereo partly specified) -2.8% [at 57.5 µM]
CC(C)CNC1(Cc2cc(CN3CCOCC3)on2)COC1 -11.4% [at 57.5 µM]
CC(=O)Nc1ccc(C2(C(=O)NCc3ccc(F)cc3)CCC2)cc1 -2.48%
CC(C)c1nc(CNC(=O)c2ccc(N(C)Cc3ccccn3)nc2)no1 11.4%
CN1CC[C@H]2CN(S(=O)(=O)c3ccc(NC(N)=O)cc3)C[C@H]21 11.1%
Cc1noc(C)c1-c1ccc2c(n1)CN(CCOc1ccccc1)C(=O)CO2 -2.06% [at 57.5 µM]
CC1CCCN1c1ccc(C(=O)N2CCC(Oc3cccnc3)CC2)cn1 (stereo unspecified) 17.8%
CCN1CCN(C(=O)C2Cn3cccc3C(=O)N2C)CC1 (stereo unspecified) -0.664%
CCN1CCC2(CCC1=O)CN(Cc1nnc(-c3cccnc3)o1)CCN2C (stereo unspecified) 0.354%
O=C(C1CCCC1)N1CCCC(C(=O)N2CCC(c3nc4ccncc4[nH]3)C2)C1 (stereo unspecified) 7.86%
O=S(=O)(c1ccccc1)N1CCC(F)(c2nc(Cc3ccccc3)no2)CC1 4.09%
OC[C@@H]1O[C@H](CNC2CCOCC2)[C@H](N2CCCC2)[C@@H]1O 6.29% [at 57.5 µM]
CCNC(=O)[C@@H]1C[C@H](NC(=O)c2ccc[nH]2)CN1C(=O)Cc1cc(C)no1 -10.3%
CCCCc1ncc(-c2c(-c3ccccc3)ncn2CCCn2ccnc2)[nH]1 71.4%
COCC(=O)N[C@@H]1CN(C2CCOCC2)CC[C@@H]1CO 3.44%
CC(=O)N1CCC(C(=O)NC2CCc3n[nH]c(=O)n3CC2)CC1 (stereo unspecified) 10.5%
O=C1CCN(C(=O)c2nccc3ccccc23)CCOCCN1 12.8%
N#Cc1cccnc1-c1ccc(C(=O)N2CCC(N[S+](=O)([O-])c3cccc(C(F)(F)F)c3)CC2)cc1 -0.821%
O=[S+]1([O-])NC2(CCCN(Cc3ccc(F)cc3)C2)CNc2ccccc21 (stereo unspecified) 0.296%
COc1cccc(CCC(=O)NC2CCc3nn(CC4CC4)c(=O)n3CC2)c1 (stereo unspecified) -8.02%
COc1ccc(Cl)cc1C(=O)N(C)C1CCc2nn(C)c(=O)n2CC1 (stereo unspecified) -3.75%
O=C(NC[C@H]1O[C@@H](CO)[C@@H](O)[C@H]1N1CCOCC1)c1cccc(F)c1 1.65% [at 57.5 µM]
CNC(=O)N1CCC(C2CCN(C(=O)CCc3ccccc3OC)C2)CC1 (stereo unspecified) 3.25%
COc1cccc(-c2ccc(C(=O)NCCNC(=O)C3CCCC3)cc2)c1 -3.57% [at 57.5 µM]
C[S+](=O)([O-])NC1CCN(c2nc3ncccc3o2)C1 (stereo unspecified) 21.1% [at 57.5 µM]
O=C(NC1CCN(Cc2ccccc2)CC1)C1CCCN(c2cnc3nccnc3c2)C1 (stereo unspecified) 0.66%
COc1ccc(CN(C)CC2CCN(C)C2(C)C)cc1C(=O)O (stereo unspecified) -3.59%
O=C(Cc1c[nH]c2ccccc12)N1CCc2c(nc(-c3ccc(F)cc3)[nH]c2=O)C1 5.73%
O=C(NCc1cccnc1)c1cc(CN2CCC(Cc3ccccc3)CC2)on1 -1.98%
C=CCCC(CN1CCSCC1)Oc1ncc(CC)cn1 (stereo unspecified) -1.25%
O=C(N[C@H](c1ccccn1)C1CC(O)C1)c1ccc(Cn2cccn2)o1 (stereo partly specified) -0.64%
COc1cc2c(cc1CN1CCC3(CCCNC3)C1)OCCCO2 (stereo unspecified) 1.14%
CCOC(=O)C1(Cc2ccc(F)cc2)CCCN(C(=O)c2cc3nc(C)cc(C)n3n2)C1 (stereo unspecified) -0.462%
COc1ccc(CCC(=O)N2CCC3(CC2)CC(Cc2nc(-c4cnccn4)no2)CCO3)cc1 (stereo unspecified) 18.5%
O=C(Nc1ccc2c(c1)OCCO2)N[C@@H]1C[C@H](CO)[C@@H](O)[C@H]1O 2.35% [at 57.5 µM]
COc1cccc(CCC(=O)N2CCC(OCC3CC3)C2)c1 (stereo unspecified) 22%
O=C(NCc1cccc(Cl)c1)c1ccc2oc(-c3cccnc3)nc2c1 5.42%
Cn1cccc1CN1CC(Oc2ccc(F)cc2F)C1 18.2% [at 57.5 µM]
O=C(c1ccsc1)N1CCC2(CC1)CN(C1CCC1)CC2CO (stereo unspecified) 4.41%
CC(C)S(=O)(=O)N1CCC(N(Cc2cccnc2)C2CCOCC2)CC1 5.29%
COCCNc1ncccc1-c1noc([C@@H]2CCCN2C2CCN(C)CC2)n1 1.31% [at 57.5 µM]
c1ccc(CO[C@H]2COCCN(c3nc4ccccc4o3)C2)cc1 -0.878% [at 57.5 µM]
CCN1C(=O)C2(CCN(S(=O)(=O)c3c(C)nn(C)c3C)CC2)c2ccccc21 -4.02%
Cc1ccc2nc(C(=O)N3CCCC3c3cc(C(C)C)on3)cn2c1 (stereo unspecified) 1.05%
Cc1ccccc1CC(=O)N1CC(F)(F)C[C@H]1c1nnc(C2CC2)o1 0.677%
COc1ccc(-c2nccn2CC(CO)Cc2ccsc2)cc1O (stereo unspecified) 0.419%
CCCc1sc(NC(=O)C[C@H]2NC(=O)c3ccccc3NC2=O)nc1C(=O)OC 1.05%
Cc1nn2c(c1-c1ccccc1-c1ccccc1)N(C(=O)c1cnccn1)CCC2 6.58% [at 57.5 µM]
Cc1ccc(S(=O)(=O)Cc2noc([C@@H]3C[C@@H](O)CN3Cc3cccc(C#N)c3)n2)cc1 -0.158%
Cc1ccsc1CN1CCc2nc(N3CCOCC3)[nH]c(=O)c2CC1 5.27%
OC[C@@H]1CNC[C@H]1C1CCN(Cc2ccsc2)CC1 0.543%
CC(C)N1CCC(N2C[C@@H](CO)[C@H](c3nc(C4CC4)no3)C2)CC1 30.8%
Cc1noc([C@@H]2CN(Cc3cccnc3)C[C@H]2CO)n1 49.8%
COC(=O)c1c(NC(C)=O)c2cc(NC3CCCC(C)(C)C3)cnc2n1CC1CCCO1 (stereo unspecified) 10.9%
CN1CCN(C(=O)[C@@H]2C[C@H](C(=O)O)CN(Cc3cccc(F)c3)C2)CC1 2.4%
Cc1ccc(NC(=O)N2CCC(c3nc(CCOCC4CC4)no3)C2)cc1C (stereo unspecified) 6.06%
Cc1ccc(-c2cc(C(=O)NCc3cccs3)nn3cnnc23)cc1 0.191%
Cc1cc(C(=O)N2CCC3(CC2)CC(N(Cc2ccc(F)cc2)C2CC2)CCO3)n(C)n1 (stereo unspecified) -2.31%
Cn1cnc(S(=O)(=O)N2CC(c3nc(-c4ccncc4)no3)C2)c1 1.06%

Reprinted at random: six records from the list, in no set order.
Activity % (negative = inhibition), inactive:
FC(F)(F)c1ccc(CN2CC(N3CCc4ccccc43)C2)cc1 28.1%
O=C(NCc1cccc(Cl)c1)c1ccc2oc(-c3cccnc3)nc2c1 5.42%
N#Cc1cccnc1-c1ccc(C(=O)N2CCC(N[S+](=O)([O-])c3cccc(C(F)(F)F)c3)CC2)cc1 -0.821%
O=C(NCc1ccc(Cl)cc1)c1ccc2ccnn2c1 8.25% [at 57.5 µM]
CCOC(=O)C1(Cc2ccc(F)cc2)CCCN(C(=O)c2cc3nc(C)cc(C)n3n2)C1 (stereo unspecified) -0.462%
OC[C@@H]1O[C@H](CNCc2ccc(F)cc2)[C@H](N2CCOCC2)[C@@H]1O 92.1% [at 57.5 µM]

From PubChem BioAssay AID1794845 (National Center for Advancing Translational Sciences (NCATS), 2023)
